Source: PubChem BioAssay AID652272 (Drosophila RNAi Screening Center, 2013)

Purpose: 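Genes whose knock-down decreases or increases Hedgehog reporter output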 (primary screen)
System: Drosophila clone 8 (Cl8) cells
Reagent: long dsRNA against Drosophila genes
Detection: 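Firefly light from a Hedgehog-responsive ptc promoter reporter and Renilla reference light, both read on a plate reader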
Reading the numbers: firefly Hh reporter signal: higher = more ptc reporter light; Renilla reference signal: higher = more Renilla control light
Active means: 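Called a hit if the two-replicate mean z-score lies below -2 or above +3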
Calls: active = hit: reporter lowered or raised; inactive = not a hit
The screen tested about 21,000 reagents; shown is an unselected part of those with a known target gene and a result. Over the whole deposit, 503 (2.4%) got an active call. 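Raw plate light values, not normalised; calls rest on replicate z-scores that were not deposited; hits include reporter decreases as well as increases.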 A plus sign joins genes that one reagent is predicted to hit. Reagent sequences are not shown. The record does not give: the amount of reagent, the time to read-out.

{"gene": "hid (head involution defective)", "DRSC id": "DRSC11316", "firefly Hh reporter signal, replicate 1": 1.34e5, "Renilla reference signal, replicate 1": 2141, "Renilla reference signal, replicate 2": 3334, "activity call": "inactive"}
{"gene": "wisp (wispy)", "DRSC id": "DRSC19703", "firefly Hh reporter signal, replicate 1": 1.50e5, "firefly Hh reporter signal, replicate 2": 83036, "Renilla reference signal, replicate 1": 3063, "Renilla reference signal, replicate 2": 2032, "activity call": "inactive"}
{"gene": "sba (six-banded)", "DRSC id": "DRSC13643", "firefly Hh reporter signal, replicate 1": 47328, "firefly Hh reporter signal, replicate 2": 93776, "Renilla reference signal, replicate 1": 11627, "Renilla reference signal, replicate 2": 2387, "activity call": "inactive"}
{"gene": "sba (six-banded)", "DRSC id": "DRSC17050", "firefly Hh reporter signal, replicate 1": 4.05e5, "firefly Hh reporter signal, replicate 2": 5.59e5, "firefly Hh reporter signal, replicate 3": 79107, "Renilla reference signal, replicate 1": 20806, "Renilla reference signal, replicate 2": 3140, "activity call": "inactive"}
{"gene": "DnaJ-H (DnaJ homolog)", "DRSC id": "DRSC03273", "firefly Hh reporter signal, replicate 1": 1.24e5, "firefly Hh reporter signal, replicate 2": 54438, "Renilla reference signal, replicate 1": 3235, "Renilla reference signal, replicate 2": 5293, "activity call": "inactive"}
{"gene": "Ae2 (Anion exchanger 2)", "DRSC id": "DRSC08997", "firefly Hh reporter signal, replicate 1": 5.03e5, "firefly Hh reporter signal, replicate 2": 75734, "Renilla reference signal, replicate 1": 3686, "Renilla reference signal, replicate 2": 3686, "activity call": "inactive"}
{"gene": "Ae2 (Anion exchanger 2)", "DRSC id": "DRSC10969", "firefly Hh reporter signal, replicate 1": 1.19e5, "firefly Hh reporter signal, replicate 2": 73640, "Renilla reference signal, replicate 1": 4691, "Renilla reference signal, replicate 2": 2482, "activity call": "inactive"}
{"gene": "Lcp65Aa", "DRSC id": "DRSC11209", "firefly Hh reporter signal, replicate 1": 46016, "firefly Hh reporter signal, replicate 2": 50674, "Renilla reference signal, replicate 1": 5461, "Renilla reference signal, replicate 2": 4072, "activity call": "inactive"}
{"gene": "CG10543", "DRSC id": "DRSC04081", "firefly Hh reporter signal, replicate 1": 54131, "firefly Hh reporter signal, replicate 2": 52502, "Renilla reference signal, replicate 1": 1552, "Renilla reference signal, replicate 2": 4631, "activity call": "inactive"}
{"gene": "CG14321", "DRSC id": "DRSC14800", "firefly Hh reporter signal, replicate 1": 5.92e5, "firefly Hh reporter signal, replicate 2": 98296, "Renilla reference signal, replicate 1": 27944, "Renilla reference signal, replicate 2": 2773, "activity call": "inactive"}
{"gene": "Rhau (RHAU helicase)", "DRSC id": "DRSC03200", "firefly Hh reporter signal, replicate 1": 1.39e5, "firefly Hh reporter signal, replicate 2": 71709, "Renilla reference signal, replicate 1": 5121, "Renilla reference signal, replicate 2": 2792, "activity call": "inactive"}
{"gene": "CG7222", "DRSC id": "DRSC07019", "firefly Hh reporter signal, replicate 1": 1.36e5, "firefly Hh reporter signal, replicate 2": 80293, "Renilla reference signal, replicate 1": 5521, "Renilla reference signal, replicate 2": 2823, "activity call": "inactive"}
{"gene": "CR18275 + CR18166 + CG32817", "DRSC id": "DRSC17249", "firefly Hh reporter signal, replicate 1": 6.57e5, "firefly Hh reporter signal, replicate 2": 3.24e5, "Renilla reference signal, replicate 1": 34299, "Renilla reference signal, replicate 2": 7129, "activity call": "inactive"}
{"gene": "CG3699", "DRSC id": "DRSC18171", "firefly Hh reporter signal, replicate 1": 91835, "firefly Hh reporter signal, replicate 2": 2.62e5, "Renilla reference signal, replicate 1": 3146, "Renilla reference signal, replicate 2": 10178, "activity call": "inactive"}
{"gene": "CG3699", "DRSC id": "DRSC18642", "firefly Hh reporter signal, replicate 1": 1.56e5, "firefly Hh reporter signal, replicate 2": 3.59e5, "Renilla reference signal, replicate 1": 6181, "Renilla reference signal, replicate 2": 12860, "activity call": "inactive"}

Part of the list above in another layout.
Ae2 (Anion exchanger 2) [DRSC10969] → firefly Hh reporter signal, replicate 1 = 1.19e5; firefly Hh reporter signal, replicate 2 = 73640; Renilla reference signal, replicate 1 = 4691; Renilla reference signal, replicate 2 = 2482; activity call = inactive
Lcp65Aa [DRSC11209] → firefly Hh reporter signal, replicate 1 = 46016; firefly Hh reporter signal, replicate 2 = 50674; Renilla reference signal, replicate 1 = 5461; Renilla reference signal, replicate 2 = 4072; activity call = inactive
